Results as given in the supplement of paper PMC11348887.
Values joined by “and” are separate entries in the source; they are usually repeats but may differ in a detail not shown here. Equal entries are not always repeated. Structures can show the parent of a compound that is named as a salt. The list shows a part of the results. Most values lie at the level of the controls, where differences are scatter.

system: hPSC-derived cortical neurons (WA09); assay: nucleus area z-score vs screen plate; higher = larger nuclei (more mature); details: 5 µM; treatment: days 7-14 after plating, readout day 21

SMILES | nucleus area z-score
COc1cc(O)c(CC=C(C)C)c(O)c1C(=O)/C=C/c1ccc(O)cc1 [Xanthohumol] | 1.59
CC[C@@H]1/C=C(\C)C[C@H](C)C[C@H](OC)[C@H]2O[C@@](O)(C(=O)C(=O)N3CCCC[C@H]3C(=O)O[C@H](/C(C)=C/[C@@H]3CC[C@H](Cl)[C@H](OC)C3)[C@H](C)[C@@H](O)CC1=O)[C@H](C)C[C@@H]2OC [Pimecrolimus] | -0.832
Cc1ncc([N+](=O)[O-])n1CCO [Metronidazole] | 0.649
CN(C)CCCN1c2ccccc2CCc2ccccc21 [Imipramine HCl] | 0.209
C#Cc1cccc(Nc2ncnc3cc(OCCOC)c(OCCO)cc23)c1 | 1.18
Nc1nc(=S)c2ncn([C@H]3C[C@H](O)[C@@H](CO)O3)c2[nH]1 | -0.0128
O=C(NC[C@H](O)CO)c1ccncc1Nc1ccc(I)cc1F | -0.743
CCc1c2c(nc3ccc(OC(=O)N4CCC(N5CCCCC5)CC4)cc13)-c1cc3c(c(=O)n1C2)COC(=O)[C@]3(O)CC [Irinotecan] | 1.76
Cc1onc(-c2ccccc2)c1C(=O)N[C@@H]1C(=O)N2[C@@H]1SC(C)(C)[C@@H]2C(=O)O [Oxacillin sodium monohydrate] | -0.205
Cc1nnc(NS(=O)(=O)c2ccc(N)cc2)s1 [Sulfamethizole] | -0.832
C[C@@H]1CCN(C(=O)CC#N)C[C@@H]1N(C)c1ncnc2[nH]ccc12 | 1.27 and 1.84
CC(=O)c1c(C)c2cnc(Nc3ccc(N4CCNCC4)cn3)nc2n(C2CCCC2)c1=O | -1.11 and -1.69
C=CC(=O)Nc1cccc(C)c1Nc1ncc2cc(-c3c(Cl)c(OC)cc(OC)c3Cl)ccc2n1 | 0.366

Pulled by compound from the entries so far (2):
SMILES | nucleus area z-score
C#Cc1cccc(Nc2ncnc3cc(OCCOC)c(OCCO)cc23)c1 | 1.18
C=CC(=O)Nc1cccc(C)c1Nc1ncc2cc(-c3c(Cl)c(OC)cc(OC)c3Cl)ccc2n1 | 0.366
